These are yes or no findings as the source states them, for the method shown. Some entries that bind do so weakly or less than the wild type.
Biological target: NhaA, sodium-proton exchanger (UniProt P13738)
Experiment: crystal structure; NhaA crystals optimised in the detergent 12M, diffracting to 3.5 Å in the best direction; arrangement in the crystal told as unpublished data; both purified

binding: binds
B1: NhaA, sodium-proton exchanger (protein, UniProt P13738 1-388)
chain: MKHLHRFFSSDASGGIILIIAAILAMIMANSGATSGWYHDFLETPVQLRVGSLEINKNMLLWINDALMAVFFLLVGLEVKRELMQGSLASLRQAAFPVIAAIGGMIVPALLYLAFNYADPITREGWAIPAATDIAFALGVLALLGSRVPLALKIFLMALAIIDDLGAIIIIALFYTNDLSMASLGVAAVAIAVLAVLNLCGARRTGVYILVGVVLWTAVLKSGVHATLAGVIVGFFIPLKEKHGRSPAKRLEHVLHPWVAYLILPLFAFANAGVSLQGVTLDGLTSILPLGIIAGLLIGKPLGISLFCWLALRLKLAHLPEGTTYQQIMVVGILCGIGFTMSIFIASLAFGSVDPELINWAKLGILVGSISSAVIGYSWLRVRLRPSV

From publication PMC3111809
